Assay results taken from the supplement of paper PMC3334620.
The full ranking holds about 33,000 sequences; the median of “E-score (-0.5 to 0.5)” is about -0.0034, and the highest 2% start at about 0.25. The list shows a part of the results.

The sequences below were run against T1, Yap3 (UniProt P38749) (assay: PBM E-score (8-mer binding enrichment) (E-score (-0.5 to 0.5)); higher = stronger / more preferred TF binding). Settings: protein concentration: 100 nM; construct: GST-full length.
T1 sequence: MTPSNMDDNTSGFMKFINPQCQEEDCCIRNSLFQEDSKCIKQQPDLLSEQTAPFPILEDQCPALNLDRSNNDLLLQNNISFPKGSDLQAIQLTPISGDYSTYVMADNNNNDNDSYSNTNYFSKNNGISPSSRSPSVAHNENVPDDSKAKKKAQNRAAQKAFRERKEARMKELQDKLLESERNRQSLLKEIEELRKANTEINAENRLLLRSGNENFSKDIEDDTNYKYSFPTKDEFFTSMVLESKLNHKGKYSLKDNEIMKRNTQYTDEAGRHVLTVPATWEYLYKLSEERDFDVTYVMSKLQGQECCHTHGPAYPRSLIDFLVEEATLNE
Summary of the method: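 Full-length yeast transcription factors or their DNA-binding domains, GST-tagged and expressed with PURExpress, were applied at about 100-200 nM to universal all-10-mer Agilent arrays. These arrays had been made double-stranded by primer extension on fresh or once-stripped slides. Detection used fluorescent anti-GST, normalisation used masliner, and E-scores for ungapped eight-base words pooled with reverse complements came from the Universal PBM Analysis Suite.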

Compared with CAAACACC, GATGAGTA is higher in “PBM E-score” value: -0.0241 for the first, 0.181 for the second.

Compared with CAGCGTCC, CAATCTGC is lower in “PBM E-score” value: -0.0405 for the first, -0.0973 for the second.

First: GCCTCAGC
Second: AATTATGC
The “PBM E-score” value of the first is lower: -0.146 for the first, 0.273 for the second.

First: CATCTATA
Second: CCGCCCGG
The “PBM E-score” value of the first is higher: 0.138 for the first, -0.138 for the second.

First: GAGCAGTA
Second: GCATTCGC
The “PBM E-score” value of the first is higher: 0.0415 for the first, -0.162 for the second.

Compared with AATGATCA, AACGGTAC is higher in “PBM E-score” value: 0.0663 for the first, 0.238 for the second.

Compared with CTCGTGTC, CTACTTTA is higher in “PBM E-score” value: -0.0754 for the first, 0.0863 for the second.

First: TGAGTCAA
Second: AGCCAGCA
The “PBM E-score” value of the first is higher: 0.0132 for the first, -0.168 for the second.

Going from AAACGCGG to ATGGCTAA, the “PBM E-score” value falls from 0.252 to 0.00804.

Going from ATAGCTAA to CTCTACAG, the “PBM E-score” value rises from -0.0659 to -0.0594.

Going from CAGTTCTA to GGATGTAC, the “PBM E-score” value rises from -0.112 to 0.0205.

First: AAGATTCT
Second: GTTCACGA
The “PBM E-score” value of the first is lower: -0.225 for the first, 0.0641 for the second.

Compared with AGCGACCA, CTCTGAAA is higher in “PBM E-score” value: 0.0106 for the first, 0.0611 for the second.

Going from ATTAAGCC to GCAAATGC, the “PBM E-score” value falls from -0.0321 to -0.0569.

First: ATCGAATC
Second: CCGCCGAC
The “PBM E-score” value of the first is higher: 0.107 for the first, -0.141 for the second.

Going from AATTAGGT to CGGACGTA, the “PBM E-score” value falls from 0.112 to -0.128.

First: CGTTAGTC
Second: ATCTCCCG
The “PBM E-score” value of the first is higher: 0.179 for the first, -0.17 for the second.

First: ACTAGGAA
Second: AATCTCAC
The “PBM E-score” value of the first is higher: 0.0898 for the first, -0.077 for the second.

First: GTACGGGA
Second: AAAAGCTT
The “PBM E-score” value of the first is higher: 0.0263 for the first, -0.128 for the second.

Going from CAGTACAA to ACATGTCC, the “PBM E-score” value falls from 0.0751 to 0.0585.

Going from GCCGGTAC to AAGAGAGA, the “PBM E-score” value rises from -0.138 to -0.095.

First: GCGCATCC
Second: GTATACAA
The “PBM E-score” value of the first is lower: -0.0827 for the first, 0.167 for the second.

Compared with CCATTGGG, GGCAGTAC is higher in “PBM E-score” value: -0.192 for the first, -0.0322 for the second.

Compared with ATTTCAAG, AATTTAAG is lower in “PBM E-score” value: 0.132 for the first, 0.106 for the second.

Compared with AATTCCAG, CATCCTCA is lower in “PBM E-score” value: 0.135 for the first, 0.0404 for the second.

Going from CAGTGATA to GACAAAAA, the “PBM E-score” value rises from 0.0339 to 0.315.

Compared with CGTTGCGC, AGCGAAAT is lower in “PBM E-score” value: 0.0582 for the first, -0.0147 for the second.

Going from GCGAAAGA to GAATACAA, the “PBM E-score” value rises from -0.00795 to 0.109.

Compared with ACGCCCTC, ATTGGCTC is higher in “PBM E-score” value: -0.0612 for the first, 0.0983 for the second.

Going from CGAAGGTC to ATCGGGGG, the “PBM E-score” value falls from -0.265 to -0.314.

Compared with ACGAGACA, GTGTCAAA is higher in “PBM E-score” value: 0.0694 for the first, 0.0844 for the second.

Compared with AAAGGCCG, GGGGAGTA is lower in “PBM E-score” value: -0.108 for the first, -0.116 for the second.

Compared with ATACTTGG, AATGGGTG is higher in “PBM E-score” value: -0.0233 for the first, 0.0388 for the second.

Compared with ATCTATGG, CATTCCCG is higher in “PBM E-score” value: -0.182 for the first, 0.13 for the second.

Going from CATTAACC to ATCAGTCG, the “PBM E-score” value rises from 0.0349 to 0.195.

Compared with CCTACGTC, ATGAATTA is higher in “PBM E-score” value: -0.0725 for the first, 0.196 for the second.

First: ACTGTTCT
Second: AAAACCAA
The “PBM E-score” value of the first is higher: 0.153 for the first, 0.0105 for the second.

Compared with ATTCACTC, CGGGGGAA is lower in “PBM E-score” value: -0.0603 for the first, -0.215 for the second.

Going from AGTAGGAA to AGTAGGTC, the “PBM E-score” value falls from 0.0161 to -0.147.

First: CCAGGTGC
Second: AGGTCCCA
The “PBM E-score” value of the first is lower: -0.122 for the first, -0.0727 for the second.

Compared with CCGGTCCA, AGCTTAGG is higher in “PBM E-score” value: -0.26 for the first, 0.0538 for the second.

Compared with CAGGTCCG, ACCTAGAC is lower in “PBM E-score” value: -0.194 for the first, -0.229 for the second.

Compared with CTCCAAAC, CTAGTTCC is higher in “PBM E-score” value: 0.0359 for the first, 0.191 for the second.

Compared with GGTGTGCA, GTGAACCA is higher in “PBM E-score” value: -0.183 for the first, 0.153 for the second.

Going from TACTCCTA to CTCACCTA, the “PBM E-score” value falls from 0.0235 to 0.00489.

First: CACGTTTA
Second: GAGAGTCC
The “PBM E-score” value of the first is higher: 0.0232 for the first, -0.127 for the second.

Going from CTTTATGA to AAGACAGG, the “PBM E-score” value rises from 0.0453 to 0.0491.

First: ACCTCGAT
Second: CGACGCCA
The “PBM E-score” value of the first is higher: 0.115 for the first, -0.143 for the second.

First: AGTGTCCA
Second: AATTGTAG
The “PBM E-score” value of the first is lower: -0.0245 for the first, 0.0862 for the second.

Going from CCGCGAAG to AAAAGCGG, the “PBM E-score” value rises from -0.125 to -0.0475.

Going from TCCGCGAA to AGAACTGC, the “PBM E-score” value falls from 0.086 to -0.131.

First: AGATCACG
Second: GACAGTTA
The “PBM E-score” value of the first is lower: 0.128 for the first, 0.16 for the second.

First: AAATAAAG
Second: ATCACGAA
The “PBM E-score” value of the first is higher: 0.226 for the first, 0.123 for the second.

Compared with TCACTAAA, CGACTAAA is lower in “PBM E-score” value: 0.121 for the first, 0.0269 for the second.

First: AGCACAGG
Second: CATCATCC
The “PBM E-score” value of the first is lower: -0.0469 for the first, 0.0479 for the second.

First: AATGTACA
Second: CCTAGTAA
The “PBM E-score” value of the first is higher: 0.156 for the first, -0.137 for the second.

Compared with CCATGCGC, AATTGGAC is higher in “PBM E-score” value: -0.0427 for the first, 0.17 for the second.

First: AGGACCCA
Second: ACGCAGTC
The “PBM E-score” value of the first is higher: -0.277 for the first, -0.356 for the second.

First: GGCTACGA
Second: CTCGACCA
The “PBM E-score” value of the first is higher: -0.0605 for the first, -0.132 for the second.

First: AACTATAG
Second: GGTGCACC
The “PBM E-score” value of the first is higher: 0.0554 for the first, -0.145 for the second.

Going from CAGAATCA to ACCTGACT, the “PBM E-score” value rises from 0.0924 to 0.0961.

Compared with GCCGAATA, GCACTTAA is lower in “PBM E-score” value: 0.115 for the first, -0.00582 for the second.

First: AAACGGAT
Second: CACGCCTC
The “PBM E-score” value of the first is higher: 0.277 for the first, -0.079 for the second.

Going from CCGAGGCA to ATTGCTCG, the “PBM E-score” value rises from -0.117 to 0.0689.

Compared with CTTTCAAA, CCGTCTAC is lower in “PBM E-score” value: 0.166 for the first, 0.0811 for the second.

First: ACGTACAT
Second: ATTGGTGG
The “PBM E-score” value of the first is higher: 0.169 for the first, 0.159 for the second.

Compared with CCGTGAAG, GTCATAGA is higher in “PBM E-score” value: -0.167 for the first, 0.097 for the second.

Going from CTTTCTGC to GTTCTTAA, the “PBM E-score” value falls from 0.134 to 0.099.

Compared with GCAGTCCC, GGGGTGAA is higher in “PBM E-score” value: -0.274 for the first, -0.078 for the second.

Compared with CATCGGTA, CTTAATCC is lower in “PBM E-score” value: 0.0494 for the first, -0.0154 for the second.

First: AGCCACAA
Second: AAGTCACG
The “PBM E-score” value of the first is higher: 0.0324 for the first, -0.0562 for the second.

Compared with ATAATCCC, ATAACCAA is higher in “PBM E-score” value: 0.0012 for the first, 0.243 for the second.

Going from CAAAATCC to CGTTTAAA, the “PBM E-score” value falls from 0.175 to 0.0721.

Going from GAAGACAC to CCGATGGA, the “PBM E-score” value falls from 0.0883 to -0.128.

First: GACCTCGC
Second: CAGTTTAC
The “PBM E-score” value of the first is lower: -0.213 for the first, -0.0295 for the second.

Compared with AGTTTAGC, AATGCACG is lower in “PBM E-score” value: 0.0635 for the first, -0.00779 for the second.

Compared with CACCAATG, AGAAAAGA is lower in “PBM E-score” value: 0.0776 for the first, 0.0128 for the second.

Going from GAACTCGA to TCTACGCA, the “PBM E-score” value falls from 0.0106 to 0.00875.

Compared with AGAGTCGG, CGGTCGGC is lower in “PBM E-score” value: -0.115 for the first, -0.244 for the second.

Going from AGAGTTAA to GAACCCGC, the “PBM E-score” value falls from 0.0136 to -0.189.

Going from AACGAGGA to GGAATTCC, the “PBM E-score” value falls from 0.0742 to -0.111.

Going from AAAAATCT to TCTAAGCA, the “PBM E-score” value falls from 0.118 to 0.00349.

Compared with AATAGTGG, GGATGTGA is lower in “PBM E-score” value: 0.123 for the first, 0.0087 for the second.

Going from GCAACCGA to CGAAGTTC, the “PBM E-score” value rises from -0.116 to -0.00893.

Going from AACTTGCC to AACCCGTG, the “PBM E-score” value falls from -0.0565 to -0.345.

First: ATGCCTAC
Second: GTTTGTCA
The “PBM E-score” value of the first is lower: -0.122 for the first, 0.133 for the second.
